# Among all 140,000 compounds or so, about 4,300 (3.1%) were called active. The shares of active, inactive and inconclusive entries below differ from those in the screen.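 How the source made its calls: active means readout at or below -70, meaning at least 70% loss of cells showing the perinucleolar compartment, a nuclear body marking cancer cells; inconclusive means readout between -30 and a set limit; inactive means the rest.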
# Assay: High Content Assay for Compounds that inhibit the Assembly of the Perinucleolar Compartment;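 further: plate controls were DMSO wells for no effect and camptothecin positive control wells for full effect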
# Conditions: PC3M PTB-GFP, PNC prevalence imaging, 16 h; at 10 µM; stronger effect = lower value
# Procedure, shortened: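 PC3M cells stably expressing PTB-GFP, 750–1000 cells/well, treated 16 h at 37 °C with compound (23 nl of library stock), in duplicate. After paraformaldehyde fixation and Hoechst stain, imaged at 20x; PNC prevalence scored by image analysis.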
row,SMILES,"activity change (PNC), negative = inhibition"
1,O=C(Nc1ccc(-c2nc3ccccc3o2)cc1)c1ccc(N2CCOCC2)c([N+](=O)[O-])c1,inactive: 1.28%
2,COc1ccc(-c2nc(S(=O)(=O)c3ccccc3)c(N3CCOCC3)o2)cc1,inactive: 5%
3,Cn1c(SCC(=O)Nc2ccccc2F)nnc1-c1cc2ccccc2o1,inconclusive: -36.4%
4,Cc1c(C)c2ccc(OS(C)(=O)=O)c(C)c2oc1=O,inactive: 31.3%
5,O=C(CCCc1ccccc1)N1CCN(c2ccc([N+](=O)[O-])cc2)CC1,inactive: 53%
6,CCOc1ccc(N2C(=O)NC(Cc3c[nH]c4ccccc34)C2=O)cc1 (stereo not given),inconclusive: -33.8%
7,CCc1noc(C)c1C(=O)NCCc1ccc(OC)c(OC)c1,inconclusive: -75.7%
8,CCOc1cccc(-c2nn3c(-c4ccccn4)nnc3s2)c1,inconclusive: -31.4%
9,COc1ccc(C(C)=O)c(Oc2nc(CN3CCOCC3)nc3scc(-c4cccs4)c23)c1,inactive: 31.1%
10,CN1CCN(C(=O)c2sc(=S)n(-c3ccccc3)c2N)CC1,active: -96.8%
11,CC1=CC(C#N)(C#N)C(C#N)(C#N)C(c2ccccc2)N1 (stereo not given),inactive: 7.21%
12,O=C(CCC1CCCCC1)N1CCN(Cc2ccc3c(c2)OCO3)CC1,inconclusive: -50.9%
13,COC(=O)[C@H](CCSC)NC(=O)Nc1cc(C)ccc1C,inconclusive: -71.6%
14,COC(=O)c1ccc2c(=O)n(-c3ccccc3)c(SCN3C(=O)c4ccccc4C3=O)nc2c1,inconclusive: -57%
15,Cc1ccc(S(=O)(=O)CCC(=O)c2ccc(O)cc2O)cc1,inactive: -8.99%
16,CC1=C(C#N)C(NC(=O)c2ccc(Cl)cc2)(C(F)(F)F)C(=O)N1 (stereo not given),inconclusive: -61.4%
17,CC(C)[C@H](NC(=O)c1ccccc1)C(=O)OCC(=O)N1CCCCCC1,inconclusive: -42.1%
18,O=C(Nc1sc2c(c1C(=O)NC1CCCCC1)CCC2)c1ccco1,inactive: 18.6%
19,COc1cc2c(cc1OC)C(C)N(C(C)=O)CC2 (stereo not given),inconclusive: -52.7%
20,CCOC(=O)N1CCN(C(=O)c2ccc(N(Cc3ccc(C)cc3)S(C)(=O)=O)cc2)CC1,inconclusive: -46%
21,CCCn1nnc(NC(=O)c2ccc(-c3ccccc3)cc2)n1,inconclusive: -36.4%
22,Oc1ccccc1CNc1cnc2ccccc2c1,inactive: 5.44%
23,CCN1/C(=C2\SC(=S)N(Cc3ccccc3)C2=O)Sc2ccccc21,inconclusive: -46.5%

# Some of the entries above in a different format:
row | SMILES | activity change (PNC), negative = inhibition
3 | Cn1c(SCC(=O)Nc2ccccc2F)nnc1-c1cc2ccccc2o1 | inconclusive: -36.4%
4 | Cc1c(C)c2ccc(OS(C)(=O)=O)c(C)c2oc1=O | inactive: 31.3%
7 | CCc1noc(C)c1C(=O)NCCc1ccc(OC)c(OC)c1 | inconclusive: -75.7%
8 | CCOc1cccc(-c2nn3c(-c4ccccn4)nnc3s2)c1 | inconclusive: -31.4%
14 | COC(=O)c1ccc2c(=O)n(-c3ccccc3)c(SCN3C(=O)c4ccccc4C3=O)nc2c1 | inconclusive: -57%
22 | Oc1ccccc1CNc1cnc2ccccc2c1 | inactive: 5.44%

# Additional entries:

row,SMILES,"activity change (PNC), negative = inhibition"
1,CN1C=CC=C/C1=C(\C#N)c1nc2ccccc2[nH]1,inconclusive: -47.5%
2,CCCC(=O)Nc1cccc(-c2nc3ccccc3o2)c1,active: -107%
3,O=C(Nc1cc([N+](=O)[O-])ccc1F)c1cccs1,inconclusive: -64.8%
4,COc1ccc(OC)c(NC(=O)C2COc3ccccc3O2)c1 (stereo not given),inactive: 40.1%
5,N=C1/C(=C/c2cccn2Cc2ccc(Cl)cc2)C(=O)N=C2SC=CN12,inconclusive: -41.4%
6,CCOC(=O)C1CCN(C(=O)CCn2c(=O)[nH]c3ccccc3c2=O)CC1,inconclusive: -45.8%
7,Cc1sc2nc(C3CC3)nc(NCCNS(C)(=O)=O)c2c1C,inactive: -0.399%
8,CCn1c(-c2ccccc2Cl)nn(CC(=O)Nc2ccccc2C)c1=S,inactive: -24.6%
9,CCOc1ccc(C(=O)Nc2cc(-c3nc4ccccc4[nH]3)ccc2C)cc1[N+](=O)[O-],inactive: 15.3%
10,CC(C)C(NC(=O)OCc1ccccc1)C(=O)O (stereo not given),inconclusive: -42%
11,Cc1ccccc1-c1nsc(SCC(=O)c2ccc(Cl)cc2)n1,inactive: 3.99%
12,O=C(CNS(=O)(=O)c1c(Cl)cccc1Cl)OCc1csc(-c2ccccc2)n1,inconclusive: -35%
13,Cc1cc(C)nc(/N=C2\NC(=O)CC(C(=O)O)N2c2ccc(Oc3ccccc3)cc2)n1 (stereo not given),inconclusive: -53%
14,COc1ccc(S(=O)(=O)N(C)CC(=O)NC2CC2)cc1,inconclusive: -43.9%
15,COc1ccccc1NC(=O)C(C)N1CCN(C/C=C/c2ccccc2)CC1 (stereo not given),inconclusive: -30.6%
16,O=C(Cn1cnc2scc(-c3ccccc3)c2c1=O)N1CCOCC1,inactive: 10.6%
17,CC(C)CC(=O)Nc1ccc(C(=O)NNC(=S)NC(=O)C2CCCCC2)cc1,inconclusive: -41.6%
18,Cc1cc(C)cc(NC(=S)NCc2ccc3[nH]c4c(c3c2)CCCC4)c1,inconclusive: -34.9%
19,COc1ccc(C(=O)c2c(C(F)(F)F)oc3c2C(=O)c2ccccc2C3=O)cc1,inconclusive: -37.6%
20,O=C(Nc1cccnc1Cl)c1cccnc1Cl,inconclusive: -31.5%
21,COc1ccc(NC(=O)CCCN2C(=O)/C(=C\c3ccco3)SC2=S)cc1,inactive: -21.3%
22,Cc1c(Cl)cccc1-n1nnnc1-c1cccs1,inconclusive: -35.5%
23,COC(=O)C(O)(NC(=O)NC(C)=O)C(F)(F)F (stereo not given),inconclusive: -30.2%

row,SMILES,"activity change (PNC), negative = inhibition"
1,Cc1ccc(Nc2nc(N3CCN(C)CC3)nc(N)c2[N+](=O)[O-])cc1C,inactive: -3.98%
2,O=C(NCCc1c[nH]c2ccccc12)C(=O)NCC1OCCCN1S(=O)(=O)c1ccccc1 (stereo not given),inconclusive: -55.7%
3,O=C(Nc1ccccc1SCC1CSc2nc3ccccc3c(=O)n21)c1ccccc1 (stereo not given),inconclusive: -47%
4,COc1ccccc1C(C)NCC(=O)Nc1ccccc1C(F)(F)F (stereo not given),active: -116%
5,COc1ccc2cc(C(c3nnnn3CCc3ccccc3)N3CCC(O)CC3)c(=O)[nH]c2c1 (stereo not given),inactive: 106%
6,COc1ccc(C(=O)CSc2nnc(CN3CCCCC3)n2-c2ccc(Cl)cc2)cc1OC,inactive: 75.2%
7,COC(=O)c1c(C)n(-c2ccc(OC)cc2)c2ccc(O)cc12,inconclusive: -57.3%
8,COc1ccc(N2COC3c4cccc5cccc(c45)C32)cc1 (stereo not given),inactive: 11.3%
9,COc1ccc(CC(=O)OCn2nnc3ccccc3c2=O)cc1,inconclusive: -36.5%
10,NC(=O)c1cc(N)ccc1N1CCCC1,inactive: 8.66%
11,CCOc1ccc(NC(=O)N[C@@H](CCSC)C(=O)OC)cc1,inactive: -24.4%
12,O=C(COc1ccccc1[N+](=O)[O-])N/N=C/c1ccc(O)cc1,inconclusive: -36.5%
13,Cc1cc(C)n2c(Nc3ccc4c(c3)OCCO4)c(-c3ccccc3)nc2n1,inconclusive: -76.8%
14,CC(=O)Nc1cccc2ncccc12,inconclusive: -48.9%
15,Cc1cc(C)c(C(=O)CSc2nnc(-c3ccccc3Br)o2)cc1C,inconclusive: -46.3%
16,CCOC(=O)N1CCN(CC(=O)Nc2c(C(=O)OC)[nH]c3cccc(Cl)c23)CC1,inconclusive: -59.8%
17,Nc1nonc1C(=Nc1ccccc1)NO,inactive: 20%
18,Cc1ccnc(SCc2cc(=O)c(OC(=O)c3ccco3)co2)n1,inactive: 41.9%
19,CCCCN1CN(S(=O)(=O)c2cccs2)c2nc3ccccc3nc21,inconclusive: -40.6%
20,C=CCOC(=O)C(C#N)c1nc2ccccc2nc1N1CCC(C(=O)OCC)CC1 (stereo not given),inconclusive: -38.5%
21,CC(C)(C)c1ccc(OCC(=O)O)cc1,inconclusive: -54.8%
22,O=[N+]([O-])c1ccc(S(=O)(=O)Nc2ccc(-c3csc(-c4ccccc4)n3)cc2)cc1,inconclusive: -32.1%
23,Cc1ccc(S(=O)(=O)c2cc(N3CCOCC3)nc(-c3ccccc3)n2)cc1,inconclusive: -37%

row,SMILES,"activity change (PNC), negative = inhibition"
1,COc1ccc(C(C[N+](=O)[O-])C2(c3ccc(OC)c(OC)c3)C(=O)c3ccccc3C2=O)cc1 (stereo not given),inactive: -24.1%
2,COc1cccc(C2=CC(c3cccc(OC)c3OC(F)F)n3nnnc3N2)c1 (stereo not given),inactive: 18.5%
3,Cc1nnc(SCC(=O)NC2CCCCC2)n(N)c1=O,inconclusive: -73.1%
4,N#Cc1nc(-c2ccc(OCc3ccccc3Cl)cc2)oc1NCCCn1ccnc1,inconclusive: -38.9%
5,COc1cc([N+](=O)[O-])ccc1NC(=O)Cc1ccc(F)cc1,inconclusive: -47.9%
6,CCC(C)(C)NC(=O)C(c1cccn1C)N(Cc1ccccc1)C(=O)Cn1nnc2ccccc21 (stereo not given),inconclusive: -50.9%
7,COc1ccc(OC)c(NC(=O)CSc2nnc(Cn3nnc4ccccc43)n2C)c1,inconclusive: -58.8%
8,O=C(O)CCC(=O)N1CC=C(c2ccccc2)CC1,inconclusive: -49%
9,Cc1cc(NC(=O)CSc2ccc3nnc(-c4cccs4)n3n2)no1,active: -106%
10,COc1cc(NC(=O)CN2CC(c3ccccc3)CC2=O)cc(OC)c1 (stereo not given),inactive: -9.4%
11,CCOc1ccc(C(=O)NCC(=O)OCc2cc(C(C)=O)ccc2OC)cc1,inconclusive: -47.2%
12,Cc1cc(C)c(N(C(=O)Cn2nnc3ccccc32)C(C(=O)NC(C)(C)C)c2ccsc2)c(C)c1 (stereo not given),inactive: -6.72%
13,CC1(C)Cc2ccccc2-c2c1c(=O)n(Cc1ccccc1)c1nnnn21,active: -100%
14,O=C(COC(=O)[C@H](Cc1ccccc1)NS(=O)(=O)c1ccccc1F)NC1CCCCC1,inconclusive: -31.7%
15,Cn1c(=O)cc(NCc2ccccc2)[nH]c1=O,active: -90.8%
16,Cc1ccc(C(=O)CSc2ncnc3sc4c(c23)CCC(C)C4)cc1 (stereo not given),active: -119%
17,CCCN1C(=O)NC2(O)C(=O)c3ccccc3C12O (stereo not given),inconclusive: -42%
18,O=C(CSc1nnc(SCc2ccccc2)s1)N/N=C/C=C/c1ccco1,inactive: 10.7%
19,Cc1ccc2nc(N(CCN(C)C)C(=O)c3cc(Cl)sc3Cl)sc2c1,inconclusive: -54.7%
20,CC(C)CCSc1nc(N2CCOCC2)c2c(c1C#N)CC(C)(C)OC2,inactive: 15.5%
21,COC(=O)c1ccccc1NC(=O)CSc1n[nH]c(C)n1,active: -100%

# Reference: PubChem BioAssay AID2417 (National Center for Advancing Translational Sciences (NCATS), 2010)
